Source: the supplement of paper PMC11006884
This is a selection; strong and weak results do not stand in their true shares. The data scatter; read single values as rough.

Amino acid sequences for entries named in this document (tags omitted). A change or cut given only in a name is not applied to a line headed by its entry.
UniProt P13797: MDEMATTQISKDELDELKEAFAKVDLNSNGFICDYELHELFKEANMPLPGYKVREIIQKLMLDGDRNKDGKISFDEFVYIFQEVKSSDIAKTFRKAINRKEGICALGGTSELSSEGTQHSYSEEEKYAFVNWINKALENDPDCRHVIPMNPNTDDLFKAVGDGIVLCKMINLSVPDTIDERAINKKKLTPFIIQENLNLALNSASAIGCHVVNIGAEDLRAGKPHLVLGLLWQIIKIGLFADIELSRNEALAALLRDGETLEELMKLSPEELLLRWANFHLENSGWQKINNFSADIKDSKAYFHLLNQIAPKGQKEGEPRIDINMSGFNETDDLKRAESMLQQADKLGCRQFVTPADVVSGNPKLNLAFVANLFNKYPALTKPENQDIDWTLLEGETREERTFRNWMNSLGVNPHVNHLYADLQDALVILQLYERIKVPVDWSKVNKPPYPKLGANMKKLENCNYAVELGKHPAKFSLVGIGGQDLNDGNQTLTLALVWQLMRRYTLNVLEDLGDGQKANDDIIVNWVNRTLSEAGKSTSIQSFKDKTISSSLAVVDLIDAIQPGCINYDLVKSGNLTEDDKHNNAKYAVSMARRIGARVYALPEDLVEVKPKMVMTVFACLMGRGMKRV
UniProt P11586, whole entry, looked up: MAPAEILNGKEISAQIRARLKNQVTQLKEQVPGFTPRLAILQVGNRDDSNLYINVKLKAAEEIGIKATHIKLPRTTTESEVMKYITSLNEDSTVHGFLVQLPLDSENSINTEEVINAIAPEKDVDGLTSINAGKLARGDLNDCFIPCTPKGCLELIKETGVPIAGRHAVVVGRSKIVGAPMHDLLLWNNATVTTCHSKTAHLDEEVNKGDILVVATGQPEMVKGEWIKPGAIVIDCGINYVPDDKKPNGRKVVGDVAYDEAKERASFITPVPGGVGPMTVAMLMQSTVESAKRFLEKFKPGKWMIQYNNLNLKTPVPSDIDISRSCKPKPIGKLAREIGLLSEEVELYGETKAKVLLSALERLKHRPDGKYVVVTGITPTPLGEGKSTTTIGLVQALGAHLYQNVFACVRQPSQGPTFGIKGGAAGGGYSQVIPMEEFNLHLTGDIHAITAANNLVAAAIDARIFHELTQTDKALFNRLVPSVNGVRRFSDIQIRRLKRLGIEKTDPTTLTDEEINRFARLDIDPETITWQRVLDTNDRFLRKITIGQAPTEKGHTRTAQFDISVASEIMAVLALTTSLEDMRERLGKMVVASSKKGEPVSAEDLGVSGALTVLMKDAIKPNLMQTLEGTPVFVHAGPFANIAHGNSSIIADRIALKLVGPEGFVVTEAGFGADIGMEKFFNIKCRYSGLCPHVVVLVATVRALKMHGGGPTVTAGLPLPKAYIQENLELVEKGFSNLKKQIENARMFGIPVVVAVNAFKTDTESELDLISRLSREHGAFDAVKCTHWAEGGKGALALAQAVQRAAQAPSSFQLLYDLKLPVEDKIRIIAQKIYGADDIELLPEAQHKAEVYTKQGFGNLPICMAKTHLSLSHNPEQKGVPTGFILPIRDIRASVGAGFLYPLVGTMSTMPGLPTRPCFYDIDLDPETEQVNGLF
UniProt P09110: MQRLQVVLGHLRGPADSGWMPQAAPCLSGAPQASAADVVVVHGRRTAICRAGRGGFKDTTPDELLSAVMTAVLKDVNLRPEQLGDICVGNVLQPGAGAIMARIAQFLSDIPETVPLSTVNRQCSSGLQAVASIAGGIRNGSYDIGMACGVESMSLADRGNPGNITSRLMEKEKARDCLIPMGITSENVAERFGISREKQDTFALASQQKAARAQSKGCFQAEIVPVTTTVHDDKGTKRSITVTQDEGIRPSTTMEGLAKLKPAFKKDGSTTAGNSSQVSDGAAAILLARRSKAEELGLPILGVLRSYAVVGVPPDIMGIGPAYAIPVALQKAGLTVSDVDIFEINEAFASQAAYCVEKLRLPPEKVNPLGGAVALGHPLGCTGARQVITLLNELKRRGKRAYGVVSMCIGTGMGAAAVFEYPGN
UniProt P15311, whole entry, looked up: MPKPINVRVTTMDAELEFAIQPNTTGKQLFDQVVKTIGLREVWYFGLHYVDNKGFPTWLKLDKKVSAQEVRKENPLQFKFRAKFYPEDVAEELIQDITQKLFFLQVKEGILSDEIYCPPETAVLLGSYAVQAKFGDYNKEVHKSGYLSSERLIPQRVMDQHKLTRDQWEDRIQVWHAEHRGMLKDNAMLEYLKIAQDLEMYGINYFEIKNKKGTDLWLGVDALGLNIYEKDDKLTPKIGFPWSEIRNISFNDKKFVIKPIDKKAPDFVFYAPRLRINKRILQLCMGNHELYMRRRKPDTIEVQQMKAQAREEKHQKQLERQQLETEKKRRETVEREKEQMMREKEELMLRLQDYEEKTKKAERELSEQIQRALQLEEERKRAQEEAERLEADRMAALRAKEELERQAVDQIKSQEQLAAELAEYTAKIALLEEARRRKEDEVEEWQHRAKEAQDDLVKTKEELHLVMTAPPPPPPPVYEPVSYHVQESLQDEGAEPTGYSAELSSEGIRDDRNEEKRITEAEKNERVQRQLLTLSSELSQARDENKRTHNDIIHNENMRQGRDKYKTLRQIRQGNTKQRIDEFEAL
UniProt P14868: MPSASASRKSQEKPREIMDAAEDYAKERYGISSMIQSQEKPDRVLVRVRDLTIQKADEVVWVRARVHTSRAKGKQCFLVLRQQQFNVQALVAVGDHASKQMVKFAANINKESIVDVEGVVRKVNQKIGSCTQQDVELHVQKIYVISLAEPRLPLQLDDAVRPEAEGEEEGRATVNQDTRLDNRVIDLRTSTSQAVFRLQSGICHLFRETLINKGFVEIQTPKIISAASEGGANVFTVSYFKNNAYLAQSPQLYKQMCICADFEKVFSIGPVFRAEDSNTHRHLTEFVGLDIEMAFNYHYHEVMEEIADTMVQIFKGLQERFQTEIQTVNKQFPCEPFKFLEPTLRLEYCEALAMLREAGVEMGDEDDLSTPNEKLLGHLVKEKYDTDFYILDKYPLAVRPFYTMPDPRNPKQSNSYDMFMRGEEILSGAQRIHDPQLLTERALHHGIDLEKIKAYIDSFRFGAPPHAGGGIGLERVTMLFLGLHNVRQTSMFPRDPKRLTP
UniProt P09622, whole entry, looked up: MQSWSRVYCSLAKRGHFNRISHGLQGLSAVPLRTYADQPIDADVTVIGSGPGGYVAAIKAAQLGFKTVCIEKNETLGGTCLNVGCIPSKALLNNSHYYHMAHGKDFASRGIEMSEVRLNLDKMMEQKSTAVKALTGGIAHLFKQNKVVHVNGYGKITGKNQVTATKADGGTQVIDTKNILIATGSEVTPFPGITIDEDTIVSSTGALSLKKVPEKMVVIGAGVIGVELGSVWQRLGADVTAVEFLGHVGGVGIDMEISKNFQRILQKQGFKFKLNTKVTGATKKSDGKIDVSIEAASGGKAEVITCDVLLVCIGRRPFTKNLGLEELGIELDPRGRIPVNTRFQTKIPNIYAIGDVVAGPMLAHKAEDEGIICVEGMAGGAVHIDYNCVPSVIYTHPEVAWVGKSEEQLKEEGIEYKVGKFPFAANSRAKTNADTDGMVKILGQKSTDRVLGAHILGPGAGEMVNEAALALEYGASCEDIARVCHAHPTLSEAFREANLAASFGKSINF
UniProt P14923: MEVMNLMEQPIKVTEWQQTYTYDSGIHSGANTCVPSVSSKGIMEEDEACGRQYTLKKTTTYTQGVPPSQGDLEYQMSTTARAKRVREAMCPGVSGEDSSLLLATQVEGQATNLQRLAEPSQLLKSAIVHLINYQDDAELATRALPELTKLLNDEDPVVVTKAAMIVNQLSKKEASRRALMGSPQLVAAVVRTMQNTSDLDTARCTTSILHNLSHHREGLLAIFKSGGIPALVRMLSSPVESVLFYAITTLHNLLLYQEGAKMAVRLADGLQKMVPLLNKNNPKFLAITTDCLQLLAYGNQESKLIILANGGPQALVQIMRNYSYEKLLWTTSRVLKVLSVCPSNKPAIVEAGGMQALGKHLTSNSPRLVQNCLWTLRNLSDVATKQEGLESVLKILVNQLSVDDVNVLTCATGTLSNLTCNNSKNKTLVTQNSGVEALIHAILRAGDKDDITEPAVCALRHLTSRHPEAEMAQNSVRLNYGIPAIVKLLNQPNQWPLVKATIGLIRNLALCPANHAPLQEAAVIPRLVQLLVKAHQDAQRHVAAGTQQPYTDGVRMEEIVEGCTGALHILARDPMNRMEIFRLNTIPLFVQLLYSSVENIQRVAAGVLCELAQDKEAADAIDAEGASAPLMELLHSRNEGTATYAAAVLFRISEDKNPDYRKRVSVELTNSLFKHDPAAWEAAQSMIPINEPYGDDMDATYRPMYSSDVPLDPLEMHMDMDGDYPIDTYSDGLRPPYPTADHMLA
UniProt P08574: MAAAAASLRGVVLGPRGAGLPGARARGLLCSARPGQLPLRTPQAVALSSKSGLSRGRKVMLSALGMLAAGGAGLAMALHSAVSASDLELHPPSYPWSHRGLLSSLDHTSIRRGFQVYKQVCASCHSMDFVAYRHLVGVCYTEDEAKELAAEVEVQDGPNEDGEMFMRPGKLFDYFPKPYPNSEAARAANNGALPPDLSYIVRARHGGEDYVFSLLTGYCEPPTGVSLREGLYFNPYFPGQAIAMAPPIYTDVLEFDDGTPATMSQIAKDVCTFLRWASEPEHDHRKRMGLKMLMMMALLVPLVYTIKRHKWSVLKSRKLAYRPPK
UniProt P08237: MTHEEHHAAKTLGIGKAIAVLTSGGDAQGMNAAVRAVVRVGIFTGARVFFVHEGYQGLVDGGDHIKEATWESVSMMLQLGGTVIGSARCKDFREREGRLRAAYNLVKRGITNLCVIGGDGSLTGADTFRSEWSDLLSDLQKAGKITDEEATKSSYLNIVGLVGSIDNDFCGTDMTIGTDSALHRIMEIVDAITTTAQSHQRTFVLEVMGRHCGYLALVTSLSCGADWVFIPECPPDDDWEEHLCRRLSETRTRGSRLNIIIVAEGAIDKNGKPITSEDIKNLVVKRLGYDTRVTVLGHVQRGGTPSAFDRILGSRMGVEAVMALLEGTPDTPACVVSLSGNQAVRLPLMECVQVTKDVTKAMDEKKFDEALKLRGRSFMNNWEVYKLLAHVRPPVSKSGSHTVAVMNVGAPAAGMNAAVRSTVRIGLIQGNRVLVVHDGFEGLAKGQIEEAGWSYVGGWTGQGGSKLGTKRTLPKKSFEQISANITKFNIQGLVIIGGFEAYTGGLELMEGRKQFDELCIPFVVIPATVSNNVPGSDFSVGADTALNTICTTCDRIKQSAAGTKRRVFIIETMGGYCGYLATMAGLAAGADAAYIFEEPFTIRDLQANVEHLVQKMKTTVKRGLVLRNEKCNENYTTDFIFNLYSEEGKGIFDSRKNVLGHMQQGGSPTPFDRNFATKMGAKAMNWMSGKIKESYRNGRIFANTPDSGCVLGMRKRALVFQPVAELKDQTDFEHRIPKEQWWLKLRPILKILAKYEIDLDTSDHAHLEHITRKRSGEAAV
UniProt P14618, whole entry, looked up: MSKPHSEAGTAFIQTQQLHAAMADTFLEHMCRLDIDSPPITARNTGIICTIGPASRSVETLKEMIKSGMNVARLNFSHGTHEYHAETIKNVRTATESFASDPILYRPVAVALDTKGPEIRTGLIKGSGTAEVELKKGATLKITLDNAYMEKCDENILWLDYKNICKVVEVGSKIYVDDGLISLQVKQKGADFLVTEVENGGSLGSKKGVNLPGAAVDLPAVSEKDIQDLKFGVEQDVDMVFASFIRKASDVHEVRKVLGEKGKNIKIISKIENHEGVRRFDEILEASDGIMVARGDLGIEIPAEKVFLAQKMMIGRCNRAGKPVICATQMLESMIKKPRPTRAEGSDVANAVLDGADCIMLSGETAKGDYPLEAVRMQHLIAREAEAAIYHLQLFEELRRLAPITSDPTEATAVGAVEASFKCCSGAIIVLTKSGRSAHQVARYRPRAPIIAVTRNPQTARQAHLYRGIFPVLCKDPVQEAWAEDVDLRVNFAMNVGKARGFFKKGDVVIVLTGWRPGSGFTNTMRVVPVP
UniProt P13716: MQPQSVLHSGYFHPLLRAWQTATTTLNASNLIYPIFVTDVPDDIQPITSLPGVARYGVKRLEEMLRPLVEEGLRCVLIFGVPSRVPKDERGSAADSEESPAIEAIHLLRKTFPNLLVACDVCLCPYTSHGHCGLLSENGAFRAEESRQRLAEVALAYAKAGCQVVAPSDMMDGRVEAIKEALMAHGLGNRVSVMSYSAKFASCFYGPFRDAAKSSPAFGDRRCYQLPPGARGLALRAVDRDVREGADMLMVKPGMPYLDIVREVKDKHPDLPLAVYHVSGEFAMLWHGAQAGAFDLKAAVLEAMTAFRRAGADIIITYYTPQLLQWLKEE

compound: COC(=O)/C=C/c1ccccc1 [methyl cinnamate]; assay: log2 ratio of iodoacetamide-alkyne labeling of the cysteine site, DMSO over compound (competition); higher = stronger covalent engagement of the cysteine by the compound, active = 1 or more; details: 500 µM; treatment time 1 h; system: HEK293T cell lysate
Procedure, shortened: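 Electrophile (500 µM) or vehicle was added to HEK293T lysate (2 mg/mL) for 1 h at ambient temperature before iodoacetamide alkyne labelling (1 h) and click coupling to sCIP-TMT reagents. After pooling, overnight trypsin digestion at 37 °C, streptavidin enrichment and acid elution, peptides were measured by Orbitrap Eclipse LC-MS/MS with FAIMS and quantified in FragPipe. Each cysteine's log2 competition ratio compares mean control-channel with mean compound-channel reporter intensity, control over compound. Data came from duplicate channels across three replicates, excluding cysteines quantified in only one replicate.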

log2 ratio of iodoacetamide-alkyne labeling, inactive:
EPRS C692 (UniProt P07814) 0.238
EEF2 C557 (UniProt P13639) -0.347
PLS3 C566 (UniProt P13797) -0.0946
HSP90AA1 C572 (UniProt P07900) 0.334
PRKCSH C500 (UniProt P14314) 0.579
MTHFD1 C785 (UniProt P11586) -0.066
ACAA1 C87 (UniProt P09110) 0.289
ACAA1 C381 (UniProt P09110) 0.0738
U2AF1L5 C169 (UniProt P0DN76) -0.0653
EZR C117 (UniProt P15311) 0.32
LAMB1 C1785 (UniProt P07942) 0.274
MTHFD1 C918 (UniProt P11586) -0.0804
MTHFD1 C143 (UniProt P11586) -0.0108
DARS C203 (UniProt P14868) 0.122
DLD C484 (UniProt P09622) 0.0486
JUP C90 (UniProt P14923) -0.0324
CYC1 C219 (UniProt P08574) -0.0229
PFKM C709 (UniProt P08237) -0.0662
UniProt P14618_C358 -0.144
UniProt P08240_C253 0.101
UniProt P08240_C363 -0.13
ALAD C75 (UniProt P13716) 0.208

Two entries picked at random from the list so far, as already listed:
log2 ratio of iodoacetamide-alkyne labeling, inactive:
PLS3 C566 (UniProt P13797) -0.0946
MTHFD1 C918 (UniProt P11586) -0.0804
